Data published in the supplement of paper PMC10338343.
± gives the standard deviation. The list shows a part of the results, in another mix than the full data. The uncertainty is large for many entries.

Key:
[1] = tested on: MIWI (PIWIL1) piRISC loaded with piRNA #1 (30 nt); assay: pre-steady-state target cleavage rate (min^-1); higher = faster piRNA-guided slicing of the target; conditions: guide: piRNA #1 5'p-UGAGGUAGUAGGUUGUAUAGUAUCCAGAGG; auxiliary factor: 500 nM mouse GTSF1
Method in brief: (§1)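 Using HEPES–potassium acetate buffer at 33 °C, 1 nM active affinity-purified piRISC with a single synthetic guide was mixed with 0.1 nM transcribed, DNA-blocked target RNA library for 0–8 or 0–960 min, with or without 500 nM GTSF1 partner protein. Uncleaved targets were sequenced and normalised to depth and to weakly complementary targets, and three trials were pooled with k3 capped at 0.0001 min^-1. A burst-and-steady-state fit gave the pre-steady-state cleavage rate.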

[2] = tested on: EfPiwi piRISC loaded with piRNA #1 (26 nt); assay: pre-steady-state target cleavage rate (min^-1); guide: piRNA #1 5'p-UGAGGUAGUAGGUUGUAUAGUAUCCA; MIWI and MILI are mouse PIWI proteins and EfPiwi is from a freshwater sponge; tags in brackets are library labels; higher = faster piRNA-guided slicing of the target; conditions: auxiliary factor: 500 nM Ephydatia muelleri Gtsf1
Method in brief: as §1

In the case of GGAGACCUAUGUAAACAACGUACUACCUCA, the “pre-steady-state target cleavage rate” value [1] is reported as 0.000253 ± 0.0094 and the “pre-steady-state target cleavage rate” value [2] is reported as 0.000233 ± 0.012.

GGAGACCUAUCUAUAGUUCCUACUACCUCA was tested, and the “pre-steady-state target cleavage rate” value [1] was 0.000949 ± 0.0068 and the “pre-steady-state target cleavage rate” value [2] was 0.00208 ± 0.0042.

With GGAGACCUAUGAAUACAACGUACUACCUGA the “pre-steady-state target cleavage rate” value [1] was 0.000359 ± 0.0053 and the “pre-steady-state target cleavage rate” value [2] was 0.0012 ± 0.0068.

For GGAGACCUAUGAUCACAACCUACUACCUCA, the “pre-steady-state target cleavage rate” value [1] was 0.00149 ± 0.0058 and the “pre-steady-state target cleavage rate” value [2] was 0.00429 ± 0.0038.

With “GGAGACCUAUGAUUACAACCUACUACCUCC [g2:g17:cont:t1C]” the “pre-steady-state target cleavage rate” value [1] was 0.00144 ± 0.0047 and the “pre-steady-state target cleavage rate” value [2] was 0.00181 ± 0.0046.

GGAGACCUAUGAUAACAACCUACCUACCUCA was tested, and the “pre-steady-state target cleavage rate” value [1] was 0.00149 ± 0.0034 and the “pre-steady-state target cleavage rate” value [2] was 0.000188 ± 0.02.

With GGAGACCUAACUCAUACAACCUACUACCUCA the “pre-steady-state target cleavage rate” value [1] was 0.00566 ± 0.0062 and the “pre-steady-state target cleavage rate” value [2] was 0.0159 ± 0.0089.

GGAGACCUAUGAUAUGUUCGCUACUACCUCA was tested, and the “pre-steady-state target cleavage rate” value [1] was 0.00052 ± 0.0061 and the “pre-steady-state target cleavage rate” value [2] was 0.000459 ± 0.0051.

GGAGACCUAUGAUAACAACCUACGUACCUCA was tested, and the “pre-steady-state target cleavage rate” value [1] was 0.000276 ± 0.0081 and the “pre-steady-state target cleavage rate” value [2] was 0.000323 ± 0.029.

GGAGACCUAUGAUUACAACGUACUACCACA was tested, and the “pre-steady-state target cleavage rate” value [1] was 0.000297 ± 0.0084 and the “pre-steady-state target cleavage rate” value [2] was 0.000559 ± 0.01.

GGAGACCUAUGAUAUGUACCUAGUACCUCA was tested, and the “pre-steady-state target cleavage rate” value [1] was 0.000252 ± 0.01 and the “pre-steady-state target cleavage rate” value [2] was 0.000197 ± 0.0099.

For GGAGACCUAUGAUUACAACACUACUACCUCA, the “pre-steady-state target cleavage rate” value [1] was 0.000254 ± 0.01 and the “pre-steady-state target cleavage rate” value [2] was 0.00167 ± 0.0062.

In the case of GGAGACCUAACAAUACAACCUACUUCCUCA, the “pre-steady-state target cleavage rate” value [1] is reported as 0.00245 ± 0.0054 and the “pre-steady-state target cleavage rate” value [2] is reported as 0.00155 ± 0.0042.

With GGAGACCUAUGAUUACAACCUACUACCUGCA the “pre-steady-state target cleavage rate” value [1] was 0.00119 ± 0.0066 and the “pre-steady-state target cleavage rate” value [2] was 0.000705 ± 0.0084.

GGAGACCUAUGAUAACAACGUACUACCUCA was tested, and the “pre-steady-state target cleavage rate” value [1] was 0.000662 ± 0.0038 and the “pre-steady-state target cleavage rate” value [2] was 0.000906 ± 0.007.

For GGAGACCUAUGAUAACAACCUACUAGCCUCA, the “pre-steady-state target cleavage rate” value [1] was 0.000949 ± 0.0058 and the “pre-steady-state target cleavage rate” value [2] was 0.000709 ± 0.01.

In the case of GGAGACCUAUGAUAUGUUCCUGACUACCUCA, the “pre-steady-state target cleavage rate” value [1] is reported as 0.000116 ± 0.021 and the “pre-steady-state target cleavage rate” value [2] is reported as 0.000211 ± 0.013.

In the case of GGAGACCUAUGAAUACAACCUACUUCCUCA, the “pre-steady-state target cleavage rate” value [1] is reported as 0.000655 ± 0.0035 and the “pre-steady-state target cleavage rate” value [2] is reported as 0.000481 ± 0.004.

For GGAGACCUAUGAUAUGUACAUACUACCUCA, the “pre-steady-state target cleavage rate” value [1] was 0.001 ± 0.0059 and the “pre-steady-state target cleavage rate” value [2] was 0.000419 ± 0.0058.

With “GGAGACCUAUGAUAACAACCUACUACCUCA [g2:g16:cont:t1A]” the “pre-steady-state target cleavage rate” value [1] was 0.000918 ± 0.0081 and the “pre-steady-state target cleavage rate” value [2] was 0.00249 ± 0.0039.

In the case of GGAGACCUAUGAUUACAACAUACUACCUCA, the “pre-steady-state target cleavage rate” value [1] is reported as 0.00152 ± 0.003 and the “pre-steady-state target cleavage rate” value [2] is reported as 0.00211 ± 0.0056.

In the case of GGAGACCUAUGAUAUGUUGCUACUUGGUCA, the “pre-steady-state target cleavage rate” value [1] is reported as 0.000121 ± 0.043 and the “pre-steady-state target cleavage rate” value [2] is reported as 0.000792 ± 0.0059.

For GGAGACCUAUGAUAUGUUGGUACUUGGUCA, the “pre-steady-state target cleavage rate” value [1] was 0.00014 ± 0.022 and the “pre-steady-state target cleavage rate” value [2] was 0.000543 ± 0.0071.

With GGAGACCUAUGAUAACAAGCUACUACCUCA the “pre-steady-state target cleavage rate” value [1] was 0.00122 ± 0.004 and the “pre-steady-state target cleavage rate” value [2] was 0.000663 ± 0.0074.

With GGAGACCUAUGAAUACGACCUACUACCUCA the “pre-steady-state target cleavage rate” value [1] was 0.000305 ± 0.011 and the “pre-steady-state target cleavage rate” value [2] was 0.00221 ± 0.0044.

With GGAGACCUAUGAUAACAACCUACAUACCUCA the “pre-steady-state target cleavage rate” value [1] was 0.000894 ± 0.0036 and the “pre-steady-state target cleavage rate” value [2] was 0.000159 ± 0.027.

For GGAGACCUAUGAAUACAACCGACUACCUCA, the “pre-steady-state target cleavage rate” value [1] was 0.000511 ± 0.0071 and the “pre-steady-state target cleavage rate” value [2] was 0.00106 ± 0.011.

GGAGACCUAUGAUAUCAUCCUACUACCUCA was tested, and the “pre-steady-state target cleavage rate” value [1] was 0.000205 ± 0.0077 and the “pre-steady-state target cleavage rate” value [2] was 0.00115 ± 0.005.

In the case of GGAGACCAAACUAUACAUCCUACUACCUCA, the “pre-steady-state target cleavage rate” value [1] is reported as 0.513 ± 0.06 and the “pre-steady-state target cleavage rate” value [2] is reported as 0.0348 ± 0.013.

With GGAGACCUAUGAUUACAACCUACUACCUACA the “pre-steady-state target cleavage rate” value [1] was 0.000824 ± 0.01 and the “pre-steady-state target cleavage rate” value [2] was 0.000799 ± 0.011.

With GGAGACCUAUGAUUACAACCUACCACCUCA the “pre-steady-state target cleavage rate” value [1] was 0.00192 ± 0.0044 and the “pre-steady-state target cleavage rate” value [2] was 0.00132 ± 0.008.

In the case of GGAGACCUAUGAUUACAACCUACUAGCUCA, the “pre-steady-state target cleavage rate” value [1] is reported as 0.000326 ± 0.0066 and the “pre-steady-state target cleavage rate” value [2] is reported as 0.00166 ± 0.0049.

In the case of GGAGACCUAUGAAAACAACCUACUUCCUCA, the “pre-steady-state target cleavage rate” value [1] is reported as 0.000924 ± 0.0043 and the “pre-steady-state target cleavage rate” value [2] is reported as 0.00053 ± 0.0063.

For GGAGACCUAUGUAUACAUCCUACUUCCUCA, the “pre-steady-state target cleavage rate” value [1] was 0.00248 ± 0.0027 and the “pre-steady-state target cleavage rate” value [2] was 0.000603 ± 0.0061.

For GGAGACCUAUGUAUACUACCUACUUCCUCA, the “pre-steady-state target cleavage rate” value [1] was 0.000903 ± 0.0055 and the “pre-steady-state target cleavage rate” value [2] was 0.000297 ± 0.011.

GGAGACCUAUGAUAACAACCCACUACCUCA was tested, and the “pre-steady-state target cleavage rate” value [1] was 0.00148 ± 0.0044 and the “pre-steady-state target cleavage rate” value [2] was 0.000348 ± 0.014.

For GGAGACCUAUGAUAUGUUGCUUCUACGUCA, the “pre-steady-state target cleavage rate” value [1] was 0.000532 ± 0.0088 and the “pre-steady-state target cleavage rate” value [2] was 0.000601 ± 0.0078.

With GGAGACCUAUGAUUACAAACUACUACCUCA the “pre-steady-state target cleavage rate” value [1] was 0.00125 ± 0.004 and the “pre-steady-state target cleavage rate” value [2] was 0.000457 ± 0.0065.

For GGAGACCUAUGUAAACAUCCUACUACCUCA, the “pre-steady-state target cleavage rate” value [1] was 0.000818 ± 0.0045 and the “pre-steady-state target cleavage rate” value [2] was 0.000687 ± 0.0072.

In the case of GGAGACCUAUGAAUACAACGUACUACCUCA, the “pre-steady-state target cleavage rate” value [1] is reported as 0.000348 ± 0.0063 and the “pre-steady-state target cleavage rate” value [2] is reported as 0.00114 ± 0.0056.

In the case of GGAGACCUAUGAAUACAACCUACUACCCUCA, the “pre-steady-state target cleavage rate” value [1] is reported as 0.0015 ± 0.0031 and the “pre-steady-state target cleavage rate” value [2] is reported as 0.00063 ± 0.0096.

With GGAGACCUAUGAUAACAACCUUCUACCUCA the “pre-steady-state target cleavage rate” value [1] was 0.00127 ± 0.0027 and the “pre-steady-state target cleavage rate” value [2] was 0.00029 ± 0.0069.

GGAGACCUAACAUAACAACCUACUACCUCA was tested, and the “pre-steady-state target cleavage rate” value [1] was 0.00255 ± 0.0052 and the “pre-steady-state target cleavage rate” value [2] was 0.00244 ± 0.0049.

For GGAGACCUAUGAUAUGUUGCUGACUACCUCA, the “pre-steady-state target cleavage rate” value [1] was 0.000197 ± 0.015 and the “pre-steady-state target cleavage rate” value [2] was 0.00057 ± 0.0065.

In the case of GGAGACCUAUGAUAACAUCCUACUAGCUCA, the “pre-steady-state target cleavage rate” value [1] is reported as 0.000324 ± 0.014 and the “pre-steady-state target cleavage rate” value [2] is reported as 0.00044 ± 0.0096.

For GGAGACCUAUCAAUACAACCUACUUCCUCA, the “pre-steady-state target cleavage rate” value [1] was 0.00175 ± 0.0041 and the “pre-steady-state target cleavage rate” value [2] was 0.00129 ± 0.0039.

For GGAGACCUAUGUUUACUACCUACUACCUCA, the “pre-steady-state target cleavage rate” value [1] was 0.000624 ± 0.0049 and the “pre-steady-state target cleavage rate” value [2] was 0.000568 ± 0.0059.

For GGAGACCUAACAAUACAACCUACUAGCUCA, the “pre-steady-state target cleavage rate” value [1] was 0.00303 ± 0.0045 and the “pre-steady-state target cleavage rate” value [2] was 0.00157 ± 0.0058.

For GGAGACCUAUGAUAUCAAGCUACUACCUCA, the “pre-steady-state target cleavage rate” value [1] was 0.000221 ± 0.011 and the “pre-steady-state target cleavage rate” value [2] was 0.000346 ± 0.0053.

For GGAGACCUAUGAUUACUACCUACUACCUCA, the “pre-steady-state target cleavage rate” value [1] was 0.000198 ± 0.012 and the “pre-steady-state target cleavage rate” value [2] was 0.00129 ± 0.005.

In the case of GGAGACCUAUGAUUACAAGCUACUAGCUCA, the “pre-steady-state target cleavage rate” value [1] is reported as 0.000839 ± 0.0082 and the “pre-steady-state target cleavage rate” value [2] is reported as 0.00233 ± 0.0048.

GGAGACCUAUGAAUACAACCUACAUACCUCA was tested, and the “pre-steady-state target cleavage rate” value [1] was 0.00106 ± 0.0052 and the “pre-steady-state target cleavage rate” value [2] was less than 0.0001.

For GGAGACCUAUGAUUACAACCUAAUACCUCA, the “pre-steady-state target cleavage rate” value [1] was 0.000461 ± 0.0049 and the “pre-steady-state target cleavage rate” value [2] was 0.0019 ± 0.0052.

GGAGACCUAUGAAUACAACCUACUAACCUCA was tested, and the “pre-steady-state target cleavage rate” value [1] was 0.00192 ± 0.0031 and the “pre-steady-state target cleavage rate” value [2] was 0.000438 ± 0.0095.
